Data from paper PMC7028283.
Results are given in words; binding and its absence hold for the method and conditions named. Binding seen in cells or lysates may run through a third protein. Some binding calls cover weakened binding; strength is not graded here.

Biological target: T1, 20S proteasome subunit β5 (mouse (endogenous in MIN6)) (UniProt O55234)
T1 sequence: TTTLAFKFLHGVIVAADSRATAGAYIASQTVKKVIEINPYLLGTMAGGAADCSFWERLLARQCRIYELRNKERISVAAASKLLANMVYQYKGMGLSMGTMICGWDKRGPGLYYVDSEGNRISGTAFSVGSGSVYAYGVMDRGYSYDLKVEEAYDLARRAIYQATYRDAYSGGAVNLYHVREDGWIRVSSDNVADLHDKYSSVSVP
Assay: co-IP; extracts of MIN6 cells, IFNβ treated (24 h) or untreated; immuno-precipitation with the antibodies indicated in the figure, then western blot

binding: binds
B1: immunoproteasome 20S subunit β5i (protein, UniProt P28063 73-276)
chain: TTTLAFKFQHGVIVAVDSRATAGSYISSLRMNKVIEINPYLLGTMSGCAADCQYWERLLAKECRLYYLRNGERISVSAASKLLSNMMLQYRGMGLSMGSMICGWDKKGPGLYYVDDNGTRLSGQMFSTGSGNTYAYGVMDSGYRQDLSPEEAYDLGRRAIAYATHRDNYSGGVVNMYHMKEDGWVKVESSDVSDLLYKYGEAAL
